experiment: general procedure: Fmoc solid-phase peptide synthesis; Rink Amide MBHA resin (0.65 mmol/g, 100-200 mesh); FastMoc methodology; conditions: whole synthesis, analytical HPLC-MS (Phenomenex Kinetex XB-C18, Agilent 1260 Infinity II, 6130 quadrupole LC/MS), scale of the general procedure 0.1 mmol

| Substance | final LC-MS purity [%] |
| --- | --- |
| CF-GLN- Y-IDLDL | 99 |
| CF-GLN-pY-IDLDL | 93 |
| CF-GLN-pY-IDLDW | 96 |
| CF-GLN-pY-IDLDW-GRKKRRQRRR | 90 |
| CF-GLN-pY-IDLEW | 97 |
| GLN- Y-IDLDL | 99 |
| GLN-F2Pmp-IDLDW | 94 |
| GLN-pY-IDLDL | 95 |
| LN-pY-IDLDF | 93 |
| LN-pY-IDLDL | 92 |
| LN-pY-IDLDW | 95 |
| LN-pY-IDLDW-GRKKRRQRRR | 95 |
| LN-pY-IDLEW | 98 |
| N-pY-IDLDL (NYIDLDL; phosphotyrosine; MOD_RES (2)..(2) PHOSPHORYLATION) | 92 |

Source: patent US20230192765A1 (UNIVERSITÀ DEGLI STUDI DI ROMA "TOR VERGATA", priority 2020, published 2023)
